Library screen at single concentrations

Chains of the proteins cited; added tags and fusions are not shown. Residues count along the entry.
UniProt Q4DA54, 1-478: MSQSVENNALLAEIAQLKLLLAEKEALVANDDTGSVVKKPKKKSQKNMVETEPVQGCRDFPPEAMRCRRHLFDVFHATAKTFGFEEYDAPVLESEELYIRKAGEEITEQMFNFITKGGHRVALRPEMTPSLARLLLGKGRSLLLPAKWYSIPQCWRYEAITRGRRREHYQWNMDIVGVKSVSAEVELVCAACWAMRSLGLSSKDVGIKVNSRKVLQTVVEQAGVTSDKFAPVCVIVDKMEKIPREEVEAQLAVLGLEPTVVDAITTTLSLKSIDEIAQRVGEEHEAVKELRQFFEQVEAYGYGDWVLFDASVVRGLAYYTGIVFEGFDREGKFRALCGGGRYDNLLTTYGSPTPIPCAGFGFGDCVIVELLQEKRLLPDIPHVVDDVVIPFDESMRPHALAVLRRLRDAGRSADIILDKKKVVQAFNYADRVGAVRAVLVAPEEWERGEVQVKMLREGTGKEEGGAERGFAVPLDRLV
UniProt P9WPC5, whole entry: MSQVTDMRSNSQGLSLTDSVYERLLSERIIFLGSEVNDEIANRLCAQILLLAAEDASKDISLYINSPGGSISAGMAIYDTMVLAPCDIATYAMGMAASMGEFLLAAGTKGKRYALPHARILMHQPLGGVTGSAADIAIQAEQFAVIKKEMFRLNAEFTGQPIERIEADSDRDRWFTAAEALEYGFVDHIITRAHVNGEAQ
UniProt P9WPC3, whole entry partner: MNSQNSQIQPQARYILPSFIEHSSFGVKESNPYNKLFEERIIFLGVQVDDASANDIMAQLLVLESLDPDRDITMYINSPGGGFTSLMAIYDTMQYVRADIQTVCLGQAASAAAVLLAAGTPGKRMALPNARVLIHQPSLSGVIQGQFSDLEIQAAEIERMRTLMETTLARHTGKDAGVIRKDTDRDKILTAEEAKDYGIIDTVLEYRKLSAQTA

A: 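Enzyme assay of histidyl-tRNA synthetase; the read-out is not stated. Target: Histidine-tRNA ligase, Trypanosoma cruzi CL Brener (UniProt Q4DA54). Compounds at 30 µM. Direction is inferred from retests: higher values go with stronger inhibition. Size under these conditions: about 69,000 compounds, about 31 of them at 50% or above in at least one test.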
B: 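ClpP1P2, Mycobacterium tuberculosis (UniProt P9WPC5 and UniProt P9WPC3). Protease assay of ClpP1P2, read by the AMC dye that it sets free. Compounds at 50 µM. Direction is inferred from only a few compounds that gave an IC50; most scored high, so higher reads as stronger inhibition. Most other retested compounds had strongly negative values. About 69,000 compounds were tested under these conditions; 0.015% (about 10) showed 50% or more at least once.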

Results are given as percent effect.
How 0% and 100% were set is not recorded. Most values in the screen are low, and negative values occur.
Compounds were drawn at random from those tested, without regard to their results.

| # | structure | A | B |
|---|---|---|---|
| 1 | `CC(=O)N1CCC(c2noc(C3CCC(=O)N3)n2)CC1` (stereo not given) | -4.286 | -47.14 |
| 2 | `CN1CCCCC1c1ncc2c(n1)CCN(Cc1ccc(F)cc1)C2` (stereo not given) | 30.71 | -8.505 |
| 3 | `O=C(NC1CC1)C1CCc2nnc(-c3cccc(C(F)(F)F)c3)n21` (stereo not given) | 1.775 | -3.982 |
| 4 | `COCCNC(=O)C1CN(Cc2ccncc2)Cc2ccnn2C1` (stereo not given) | 7.882 | -1.909 |
| 5 | `CCOc1ccc(NC(=O)NC2CCc3nc(C)nn3C2)cc1Cl` (stereo not given) | 6.494 | 1.388 |
| 6 | `CCc1ncc2c(n1)CN(Cc1nnc(CC)o1)CC2` | 7.975 | -18.65 |
| 7 | `Cc1nc(N2CC[C@@H](NC(=O)c3cnccn3)[C@H](O)C2)c2ccsc2n1` | 2.5 | -10.29 |
| 8 | `Cc1nnc2n1CCN(Cc1ncc(-c3ccc(F)cc3)o1)C2` | 3.55 | -2.805 |
| 9 | `Cc1ccc(NC(=O)c2ccc(N3CCCCC3)nn2)c(Cl)c1` | -27.78 | 7.947 |
| 10 | `Cc1ccc(=O)n(CC2(O)CCN(Cc3cc(C)c(O)c(C)c3)CC2)n1` | -4.865 | -1.589 |
| 11 | `CCc1cc(NCC(O)CN2CCCCC2)n2ncnc2n1` (stereo not given) | 4.348 | -14.01 |
| 12 | `O=C(Nc1ccccn1)N(CCO)Cc1ccsc1` | 2.662 | 1.419 |
| 13 | `O=C(c1ccoc1)N1CCO[C@]2(CCC[C@@H]2COCc2ccncc2)C1` | 6.863 | 4.78 |
| 14 | `Cc1ccc(CN(C)CC(=O)NC2(C)CCS(=O)(=O)C2)cc1` (stereo not given) | 1.887 | 8.361 |
| 15 | `c1cnc(N2CCCC(c3cc4cccnc4[nH]3)C2)nc1` (stereo not given) | 4.563 | -3.112 |
| 16 | `Cc1nn(C)c2c(=O)n(CC(=O)NCc3ccc(N(C)C)cc3)ccc12` | 1.98 | -10.07 |
| 17 | `Cc1cc(CN2C[C@H]3CCC[C@@]3(COCC3CCOCC3)C2)no1` | 2.151 | -1.248 |
| 18 | `CC(NC(=O)CCn1cccn1)c1ccc(-n2ccnn2)cc1` (stereo not given) | 1.327 | -12.64 |
| 19 | `CN1CCCC2(CCN(c3cccc(C(F)(F)F)n3)C2)C1=O` (stereo not given) | 0.4926 | -1.811 |
| 20 | `CS(=O)(=O)N1C[C@@H]2OCC(=O)N(CC3CC3)[C@@H]2C1` | 5.941 | -5.926 |
| 21 | `Cc1nnc(NC(=O)CN2CCCC2c2noc(C3CC3)n2)s1` (stereo not given) | 3.093 | -8.87 |
| 22 | `CC1=C[C@@H](CC#N)[C@H](C(C)C)C[C@H]1CC(=O)N1CCN(CCO)CC1` | -1.98 | -9.848 |
| 23 | `Cn1ccnc1CN1C[C@@H](F)[C@@H](OCc2nc3cnccc3[nH]2)C1` | 2.488 | -11.06 |
| 24 | `O=C(Cc1ccc2c(c1)CCC2)NC1CCN(Cc2ccccc2)CC1` | 14.81 | 4.194 |
| 25 | `O=C(NC1CCN(CC2CCCC2)C1)N1CCC(OCC2CC2)CC1` (stereo not given) | 7.772 | -7.632 |
| 26 | `CCN1CCN(c2ccc(F)cc2C(C)NCc2cscn2)CC1` (stereo not given) | 0 | -8.568 |
| 27 | `O=C(c1ncccn1)N1CCC[C@]2(C[C@H](OCC3CC3)CO2)C1` | 2.941 | -6.711 |
| 28 | `Cc1ccc(-c2ncc(C(=O)N3CCC[C@H](N)C3)c(O)n2)cc1` | 10.24 | -0.08153 |
| 29 | `Cc1ccc(CNC(=O)NCCCO)cc1` | 0.5634 | 0.7469 |
| 30 | `COC(=O)[C@@H]1Cc2ncn(C(C)C)c2CN1S(=O)(=O)Cc1ccccc1` | -2.488 | -5.862 |
| 31 | `O=C(Cc1ccc2c(c1)OCCO2)N1CCCC(n2ccnc2)C1` (stereo not given) | -1.887 | 2.848 |
| 32 | `O=C(Cc1cccs1)N1C[C@@H]2CC[C@H](C1)N(Cc1ccccn1)C2=O` | -2.326 | 6.275 |
| 33 | `COCCNC(=O)N1CCOCC1c1c(C)nn(C)c1C` (stereo not given) | 9.524 | 10.45 |
| 34 | `Cc1cc(C)n(CC2CN(Cc3nnsc3Cl)CCO2)n1` (stereo not given) | 1.901 | 19.65 |
| 35 | `N#Cc1c(N2CCCN(C3CCOCC3)CC2)nc2ccccn12` | 1.622 | -8.823 |
| 36 | `CC(C)c1cc(CNC(=O)NCc2cccc(N3CC=CC3)c2)on1` | 1.064 | 0.2408 |
| 37 | `CC(=O)c1ccc(CNC(=O)c2c(C)cc(C)cc2C)nc1C` | -13.33 | -10.12 |
| 38 | `Cc1oc(-c2ccoc2)nc1CN1CCCCC1CCn1cccn1` (stereo not given) | 8.543 | -13.78 |
| 39 | `CN(C)C(=O)COCC1C[C@@H]2OCCN(Cc3ccco3)[C@H]2C1` (stereo not given in full) | 3.226 | 11.54 |
| 40 | `Cc1cnc(CN(C)C2CCN(Cc3nccn3C)C2)o1` (stereo not given) | 5.085 | -39.65 |
| 41 | `COc1nc2c(cc1C(=O)N1C[C@@H](N)C[C@H]1C(=O)NC(C)C)CCC2` | 0 | -5.578 |
| 42 | `Cc1nc(C2(NCC(=O)NCc3cccs3)CCCCC2)no1` | 8.543 | -2.984 |
| 43 | `Cc1cccc(CNc2nnc(C(C)C)o2)c1` | 4.082 | -12.21 |
| 44 | `Cc1nn(C)c(C)c1CN1CCCC1c1nccc(CN(C)C)n1` (stereo not given) | 9.574 | 9.785 |
| 45 | `CCOc1ncccc1C(=O)N1CC=C(c2ccc(O)cc2)CC1` | 5.155 | -0.3565 |
| 46 | `O=C(N[C@@H]1CN(Cc2ccc3[nH]ccc3c2)C[C@H]1O)c1cscn1` | 6.593 | -22.6 |
| 47 | `COc1c(CNCCNC(=O)c2ccc(C)cc2)c(C(C)C)nn1C` | 5.848 | -10.66 |
| 48 | `Cc1nnc(N2CCC(CCN(C)C)CC2)c(C#N)c1C` | -0.8403 | 3.638 |
| 49 | `Cc1cc2[nH]c(=O)c(=O)[nH]c2cc1S(=O)(=O)NC1CCC(C)CC1` (stereo not given) | 13 | -1.315 |
| 50 | `COCCCNC(=O)CCn1ncc2c(Cl)cccc21` | 3.478 | 4.68 |
| 51 | `CCC(=O)Nc1cccc(OCC(=O)N(C)Cc2nc(C)c[nH]2)c1` | 12.04 | 6.398 |
| 52 | `Cc1noc(C)c1CN1C[C@@H]2COC[C@@H](C(=O)N3CCCCO3)[C@@H]2C1` | 6.863 | -9.523 |
| 53 | `O=C(NC1(C(=O)NCC2CC2)CCCC1)C1Cc2cc(F)ccc2O1` (stereo not given) | 5.882 | 0.1828 |
| 54 | `Cc1cc(-n2nc(C3CC3)nc2-c2csnn2)ccn1` | -19.34 | 3.61 |
| 55 | `CN(C)C(C)(C)CNC(=O)C(C)(C)c1ccccc1F` | 8.13 | 7.616 |
| 56 | `Cc1nc(CN2CCN(C(=O)COCc3ccccc3)CC2)no1` | -0.8475 | -4.826 |
| 57 | `CCC(C)NC(=O)CCNC(=O)c1c[nH]cc1-c1cccc(OC)c1` (stereo not given) | 3.261 | -0.4542 |
| 58 | `Cn1c(=O)[nH]c(=O)n2c(CC(=O)Nc3ccc(Cl)c(Cl)c3)cnc12` | -30.18 | -2.756 |
| 59 | `Cc1nnsc1CN(C)Cc1ccc(C(=O)Nc2sccc2C#N)cc1` | 7.514 | 4.666 |
| 60 | `Cc1ccc(N2CCC(c3[nH]ncc3Cc3ccccc3)CC2)nn1` | 7.955 | 16.36 |
| 61 | `O=C(c1cccnc1)N1CCCC(c2ncncc2-c2ccncc2)C1` (stereo not given) | 2.996 | 0.1443 |
| 62 | `COc1nccnc1-c1cc(NC2CCCC2)nc2[nH]ccc12` | 6.358 | 9.779 |
| 63 | `CN(Cc1ccsc1)C(=O)CN1CCCCC1Cn1cccn1` (stereo not given) | 5.882 | -8.927 |
| 64 | `O=C(CCc1ccc(-n2cnnn2)cc1)Nc1ccncc1` | 9 | -26.11 |
| 65 | `Cn1cccc1C(=O)N1C[C@@H]2CCCO[C@@H]2[C@H](N2CCOCC2)C1` | 4.301 | -2.58 |
| 66 | `CO[C@H]1CCN(C(=O)c2ccc3oc(C)cc3c2)C[C@@]12CCCO2` | 10.99 | -3.873 |
| 67 | `Cc1nc(COc2ccc(CNCCn3cccn3)cc2)cs1` | 10 | 1.053 |
| 68 | `COC(=O)CC1CCCCN1CC(=O)Nc1cc(F)ccc1F` (stereo not given) | 4.02 | -11.19 |
| 69 | `CC(C)CC(=O)N1CCc2ccc(S(=O)(=O)N3CCN(C)CC3)cc2C1` | -2.564 | -10.03 |
| 70 | `CN(CC(F)F)C(=O)c1cn(-c2ccc(Br)cc2)cn1` | 13.68 | -6.057 |
| 71 | `Cc1noc(C)c1CN1CC2(CCN(C(=O)c3cccn3C)C2)CC1=O` (stereo not given) | 0.4975 | -0.07189 |
| 72 | `CCn1cc(N)c(-c2nnc3n2CCC3)n1` | -1.156 | 5.1 |
| 73 | `CN(CCC(F)(F)F)C(=O)C1CSCN1C(=O)C(C)(C)C` (stereo not given) | -5.521 | 22.1 |
| 74 | `CN1CCN(C)C2(CCN(Cc3ccsc3)CC2)C1=O` | 6.25 | 15.06 |
| 75 | `CC(C)(C)c1ccc(OCC(=O)O)c(CN2C[C@H]3C[C@H](O)C[C@H]3C2)c1` | 13.64 | 31.16 |
| 76 | `Cc1ccoc1C(=O)N1CCCC(c2cc(C(F)(F)F)[nH]n2)C1` (stereo not given) | 0.5848 | -11.55 |
| 77 | `C[C@@H](NC(=O)c1cccs1)c1onc(-c2cccnc2)c1C(=O)O` | -6.468 | -10.55 |
| 78 | `Cc1cc2nc(SCC(=O)N3CCOCC3)n(C(C)C)c(=O)c2[nH]1` | -4.878 | 9.73 |
| 79 | `COc1cc(OC)c(CNC(=O)NCC(=O)N2CCCC2)c(OC)c1` | 4.082 | 2.431 |
| 80 | `CCc1n[nH]c(C2CN(C(=O)Cn3ccccc3=O)CCO2)n1` (stereo not given) | 1.128 | 10.34 |
| 81 | `C=C(C)CNc1ccc(C(=O)N(CC)Cc2nccn2C)cn1` | 1.932 | -20.63 |
| 82 | `CCn1cnnc1CNC(=O)N(C)Cc1ccc(F)c(F)c1` | 3.008 | 4.551 |

For reference, 9 entries once more:

structure	A	B
CCN1CCN(c2ccc(F)cc2C(C)NCc2cscn2)CC1 (stereo not given)	0	-8.568
Cc1ccc(=O)n(CC2(O)CCN(Cc3cc(C)c(O)c(C)c3)CC2)n1	-4.865	-1.589
Cc1nc(COc2ccc(CNCCn3cccn3)cc2)cs1	10	1.053
Cc1cc2[nH]c(=O)c(=O)[nH]c2cc1S(=O)(=O)NC1CCC(C)CC1 (stereo not given)	13	-1.315
O=C(c1ccoc1)N1CCO[C@]2(CCC[C@@H]2COCc2ccncc2)C1	6.863	4.78
CC(C)CC(=O)N1CCc2ccc(S(=O)(=O)N3CCN(C)CC3)cc2C1	-2.564	-10.03
CN1CCN(C)C2(CCN(Cc3ccsc3)CC2)C1=O	6.25	15.06
O=C(NC1CC1)C1CCc2nnc(-c3cccc(C(F)(F)F)c3)n21 (stereo not given)	1.775	-3.982
CCc1n[nH]c(C2CN(C(=O)Cn3ccccc3=O)CCO2)n1 (stereo not given)	1.128	10.34

Measurements from “University of Dundee, Small-Polar-MMV Screening Library” (2021), ChEMBL document CHEMBL3988442.